This note sets out measurements from PubChem BioAssay AID306 (DTP/NCI, 2004).

The test deals with BDF1 mice, L1210 Methyl-GAG-resistant leukemia, survival T/C. The test is described as follows: NCI In Vivo Anticancer Drug Screen. Data for tumor model L1210 Leukemia resistant to Methyl-GAG; NSC 32946 (subcutaneous) in B6D2F1 (BDF1) mice. The settings on record: T/C endpoint: mean survival time, schedule: Q01DX Z (ip), vehicle: saline, higher T/C = longer survival. The method, then: The antitumor activity of compounds was measured in mice bearing transplantable tumors. Survival or tumor size were measured and the results are expressed as the measurement made in the treated group (T) divided by the measurement made in the vehicle treated control group (C). The tumor model used in this assay is L1210 Leukemia resistant to Methyl-GAG; NSC 32946 (subcutaneous) in B6D2F1 (BDF1) mice

SMILES strings stand for the structures. The list does not hold the whole screen: it covers a few groups of compounds. Not every dose and run of a compound is shown. T/C: endpoint of the treated group in % of that of the vehicle group. For survival time, the PubChem record calls one and a half times the control and up active, and a quarter to a half above the control has no call in these data; cut-offs in other NCI protocols can differ. Some T/C values are marked as having no survivor count here; that says nothing about deaths at the dose. Schedules are NCI's codes, taken here to give the interval after Q, in days (D) or hours (H), and the number of doses after X. Some schedule codes hold Z or #, which are not explained here.

For the molecule `CN(CCCl)CCCl`, the T/C is 102 % of control [survivor count not shown] (dose: 0.02 mg/kg/injection), 96 % of control [survivor count not shown] (dose: 0.08 mg/kg/injection) and 92 % of control [survivor count not shown] (dose: 0.32 mg/kg/injection).
